The record followed here is PubChem BioAssay AID1487 (National Center for Advancing Translational Sciences (NCATS), 2009).

The structures appear in SMILES notation. Some of the results follow. Shown are side measurements of this screen, not its main read-out; they come without a call. Most of these compounds were active or inconclusive in the main read-out, so they are no random draw. Potencies come from curve fits of mixed quality, noted in brackets.

The nature of the experiment: qHTS Assay for Modulators of Lamin A Splicing. The following applies: HeLa LMNA splicing GFP/RFP minigene ratio, 48 h. In short, it runs like this: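 Read-out is the ratio of GFP to DsRed2 object intensity, acquired by 488 nm laser-scanning cytometry on HeLa lamin A-EGFP minigene reporter cells. Compound incubation 48 hrs at 37 °C in Opti-MEM with 2% FBS; DMSO 0.5% final.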
For orientation: qHTS replaces the single test concentration by a dilution series.

[1] abbreviates: measured here: GFP splicing reporter channel.
Setting [2] is: measured here: RFP viability control channel.

The term AC50 denotes the concentration at which the activity in the assay is half-maximal. `CN(C)Cc1ccccc1C1(O)c2ccccc2CSc2ccccc21` (configuration not stated): the AC50 was 35.5 µM [rising, single point] under setting [1] and 15.8 µM [rising, single point] under setting [2].

`COc1ccc(-c2csc(=Nc3ccccc3)n2CCO)cc1`: the AC50 was 0.0398 µM [rising, full curve] under setting [1] and 15.8 µM [rising, partial curve] under setting [2].

Regarding `COC(=O)C1=C(C)N(CCc2cc(OC)c(OC)c(OC)c2)C(=O)N[C@H]1c1cccs1`, under setting [2], the AC50 was 20 µM [rising, single point].

As to `Cc1ccc(S(=O)(=O)N2CCCC2C(=O)NCCc2nc3ccccc3[nH]2)cc1` (configuration not stated), under setting [2], the AC50 is 15.8 µM [rising, single point].

With `COc1ccccc1N1CCN(CCCNc2cc(=O)n(C)c(=O)n2C)CC1`, the AC50 is 0.891 µM [falling, single point] under setting [1] and 0.501 µM [falling, partial curve, poor fit] under setting [2].

Take `CCN1CCc2c(sc(NC(=O)Nc3ccc(Cl)c(Cl)c3)c2C(N)=O)C1`: the AC50 is 17.8 µM [falling, single point] under setting [1] and 15.8 µM [falling, single point] under setting [2].

Regarding `C=C(C)C1CCC(C)=C1CC(C)(C)/C=N\n1cnnc1` (configuration not stated), under setting [2], the AC50 is 3.98 µM [rising, partial curve, poor fit].

Consider `O=C(c1ccccc1)C1CCN(CC(=O)N2CCN(c3ccccc3)CC2)CC1`, for which the AC50 under setting [2] is 0.01 µM [falling, full curve, poor fit].

For `CC(=O)N1CCN(c2ccc(NC(=O)c3cccc(OCc4ccccc4)c3)cc2)CC1`, under setting [2], the AC50 was 11.2 µM [rising, partial curve].

`Cc1cc(C)c2c(n1)nn1c(-n3ccnc3)cc(C)nc21`: the AC50 under setting [2] is 12.6 µM [rising, partial curve].

Regarding `O=C(NNC(=O)C1CCN(S(=O)(=O)c2cccc(C(F)(F)F)c2)CC1)C1CC1`, the AC50 under setting [1] was 20 µM [falling, single point].

With `COc1ccc(CNc2cc(-c3ccccc3OC)ncn2)c(OC)c1`, the AC50 under setting [1] is 7.94 µM [falling, partial curve, poor fit].

For the compound `CCC(C(=O)NC1CCCC1)n1c(SCc2cccc(C)c2)nc2ccncc21` (configuration not stated), under setting [2], the AC50 is 2.51 µM [rising, partial curve, poor fit].

Turning to `CCOc1cccc(C(=O)Nc2ccc(N(CC)CC)cc2)c1`, the AC50 under setting [2] was 22.4 µM [rising, single point].

With `CCCCNC(=O)c1ccccc1NC(=O)c1ccc2c(c1)OCO2`, the AC50 was 0.0224 µM [falling, full curve] under setting [1] and 0.1 µM [falling, full curve] under setting [2].

For the compound `O=[N+]([O-])c1cccc(/C([O-])=C(/C(=S)Nc2ccccc2)[n+]2ccccc2)c1`, the AC50 under setting [2] is 6.31 µM [rising, single point].

In the case of `Cc1ccc(C(=O)NCC(=O)OCc2cc(=O)n3nc(C4CC4)sc3n2)cc1`, under setting [1], the AC50 was 10 µM [rising, partial curve, poor fit].

Regarding `O=c1c2ccccc2c(C=NCc2ccccn2)c(O)n1-c1ccccc1Cl`, the AC50 under setting [1] is 0.0562 µM [rising, full curve, poor fit].

`CCOP(=O)(OCC)C(Nc1cccc(C(F)(F)F)c1)c1ccc(C)cc1` (configuration not stated): the AC50 under setting [1] was 5.62 µM [falling, single point].

For the compound `COc1ccc(N/C=C\C(=O)c2ccc(C)cc2)cc1OC`, the AC50 under setting [1] is 0.126 µM [rising, full curve, poor fit].

For `Cc1ccc(C)c(CSc2nnc(-c3cccs3)n2Cc2ccco2)c1`, the AC50 under setting [1] is 15.8 µM [falling, single point] and the AC50 under setting [2] is 15.8 µM [falling, partial curve, poor fit].

As for `COc1cc2nc(N(C)C)nc(N)c2cc1OC`, the AC50 was 12.6 µM [rising, partial curve, poor fit] under setting [1] and 15.8 µM [rising, partial curve] under setting [2].

`COc1ccc(-c2nc3c(c4c2C[C@H](c2ccccc2)OC4)CN(S(=O)(=O)c2ccc(C#N)cc2)CC3)c(C)c1`: the AC50 under setting [1] was 1.78 µM [rising, partial curve, poor fit].

Turning to `Nc1nnc(SCC(=O)c2ccc([N+](=O)[O-])cc2)s1`, the AC50 under setting [1] was 0.891 µM [falling, full curve, poor fit].

Regarding `CC1(C)Cc2ccccc2C(N/N=C/c2ccc([N+](=O)[O-])cc2)=N1`, the AC50 under setting [2] was 35.5 µM [falling, single point].

Consider `CC1(c2ccc3noc(-c4ccc(F)cc4)c3c2)OCCO1`, for which, under setting [2], the AC50 is 20 µM [rising, single point].

For `CCOn1c(=O)c(=O)n(O)c2ccccc21`, the AC50 under setting [2] was 4.47 µM [falling, full curve, poor fit].

As for `O=C(NCCOC(=O)c1cccs1)c1cccnc1`, the AC50 under setting [2] is 0.0562 µM [rising, partial curve].

For `NNC(=O)C1CCCN1S(=O)(=O)c1ccc(Cl)cc1` (configuration not stated), under setting [1], the AC50 was 0.00794 µM [rising, full curve, poor fit].

`O=C(c1ccc(Cl)c(S(=O)(=O)N2CCCC2)c1)N1CCN(c2ccccn2)CC1`: the AC50 under setting [2] was 14.1 µM [rising, single point].

As for `O=c1sc2ccccc2c(N2CCCCC2)c1[N+](=O)[O-]`, the concentration at half-maximal activity (AC50) under setting [2] was 0.0224 µM [falling, full curve, poor fit].

Turning to `COc1ccc(S(=O)(=O)Nc2ccc(F)cc2)cc1N(C)S(=O)(=O)c1ccc(Cl)cc1`, the concentration at half-maximal activity (AC50) was 17.8 µM [falling, partial curve, poor fit] under setting [1] and 11.2 µM [falling, single point] under setting [2].

With `CN(C(=S)Nc1ccc(Oc2ccccc2)cc1)C1CCCCC1`, the AC50 runs as follows: under setting [1], 17.8 µM [rising, single point]; under setting [2], 31.6 µM [rising, single point].

With `N#CCC(=O)NCCCOC(=O)Nc1ccc(Cl)c(Cl)c1`, the half-maximal activity concentration (AC50) under setting [2] was 15.8 µM [rising, partial curve].

On to `C=C(C)CSc1nnc([C@@H](NC(=O)OC(C)(C)C)C(C)CC)o1` (some centres not stated), for which, under setting [2], the AC50 was 11.2 µM [rising, partial curve, poor fit].

As for `COc1ccc(-c2ccc(S(=O)(=O)NCC3CCCO3)cc2)cc1` (configuration not stated), the AC50 is 2.24 µM [rising, full curve, poor fit] under setting [1] and 5.01 µM [rising, full curve] under setting [2].

Consider `Cc1ccccc1OCC(=O)NNC(=S)NC(=O)c1ccccc1[N+](=O)[O-]`, for which the AC50 under setting [2] is 35.5 µM [rising, single point].

In the case of `O=C(C[n+]1cc(-c2ccc(Cl)c(Cl)c2)n2c1CCC2)N1c2ccccc2Sc2ccccc21`, the AC50 under setting [2] was 31.6 µM [rising, single point].

Consider `O=C(NCc1ccccc1Cl)c1ccc(NC(=O)c2nsc3ccccc23)cc1`, for which the AC50 under setting [1] is 0.282 µM [rising, full curve, poor fit].

As for `Cc1cc(C(=O)COC(=O)CNS(=O)(=O)c2ccc3ccccc3c2)c(C)n1-c1ccccc1`, the AC50 under setting [2] was 17.8 µM [rising, single point].

With `COc1ccccc1CNC(=O)C1CCN(Cc2cc3ccccc3n2Cc2cccc(C)c2)CC1`, under setting [2], the AC50 was 0.178 µM [rising, full curve].

`CCC(Oc1cc(Cl)ccc1Cl)C(=O)NN1C(=O)C2C3CCC(C3=C(C)C)C2C1=O` (configuration not stated): the AC50 under setting [2] was 22.4 µM [rising, single point].

Turning to `CNc1sc(C(=O)c2ccc(F)cc2)c(N)c1-c1nc2ccccc2s1`, the AC50 under setting [2] was 17.8 µM [rising, single point].

With `O=C(NNC(=S)NC(=O)c1cccs1)c1ccc(NC(=O)c2ccccc2)cc1`, under setting [2], the concentration at half-maximal activity (AC50) was 0.1 µM [rising, full curve, poor fit].

In the case of `O=C1/C(=C\c2ccc(-c3ccccc3[N+](=O)[O-])o2)C(c2ccccc2)=NN1c1ccccc1`, under setting [2], the AC50 is 35.5 µM [rising, single point].

For the compound `COc1cccc(/C=N/NC(=O)CSc2nnc(C)n2-c2ccccc2)c1O`, the AC50 under setting [1] is 28.2 µM [falling, single point].

Consider `CCOC(=O)C1CCN(C(=O)NS(=O)(=O)c2ccc(C)cc2)CC1`, for which the AC50 was 0.00355 µM [rising, full curve, poor fit] under setting [1] and 0.0447 µM [rising, full curve, poor fit] under setting [2].

With `Cc1cccc(/C=N\Nc2cn[nH]c(=O)c2Cl)c1`, the AC50 was 8.91 µM [falling, partial curve] under setting [1] and 7.08 µM [falling, partial curve] under setting [2].

As to `CCC1CN(C(=O)N2CCC(C(=O)N3CCN(c4ccc(F)cc4)CC3)CC2)c2ccccc2O1` (configuration not stated), the AC50 under setting [2] is 35.5 µM [rising, single point].

On to `Cc1c(C(=O)Nc2ccccc2Br)oc2ccc(S(=O)(=O)N3CCOCC3)cc12`, for which the AC50 under setting [2] is 0.0631 µM [falling, full curve].

As for `NC(=O)C1CCN(C(=O)COc2ccc(S(=O)(=O)NCc3ccccc3)cc2Cl)CC1`, the AC50 under setting [1] was 12.6 µM [rising, single point].

On to `COc1ccc(S(=O)(=O)N2CCCC2C(=O)Nc2nc3c(s2)CCCC3)cc1` (configuration not stated), for which the AC50 under setting [2] was 12.6 µM [rising, partial curve].

`Cc1ccc2cc(C(c3nnnn3C(C)(C)C)N3CCCC3)c(=O)[nH]c2c1C` (configuration not stated): the AC50 under setting [2] is 1 µM [falling, partial curve].

Regarding `CN(Cc1ccccc1NS(=O)(=O)c1ccc(Cl)cc1)C1CCCCC1`, the AC50 under setting [1] was 4.47 µM [rising, full curve, poor fit] and the concentration at half-maximal activity (AC50) under setting [2] is 5.62 µM [rising, full curve, poor fit].

In the case of `O=C(NCC(c1ccc2c(c1)OCO2)N1CCN(c2ccccc2)CC1)c1ccccc1` (configuration not stated), the AC50 was 22.4 µM [falling, partial curve, poor fit] under setting [1] and 0.0398 µM [falling, full curve, poor fit] under setting [2].

As for `CC(C)N(C(=O)CSc1nnnn1-c1ccc2c(c1)OCO2)C(C)C`, the AC50 under setting [2] was 35.5 µM [falling, partial curve].

Consider `O=C(NC(=S)Nn1cnc2c(cnn2-c2ccccc2)c1=O)c1ccc(Oc2ccccc2)cc1`, for which the AC50 under setting [1] was 14.1 µM [rising, partial curve] and the AC50 under setting [2] was 0.0158 µM [rising, full curve, poor fit].
